Substitutions are numbered along the chain they refer to. These are yes or no findings as the source states them, for the method shown. Some entries that bind do so weakly or less than the wild type. For some of these results: Tags and fused reporters may be left off the sequences shown.
B1: DOM10-53-567 (c-myc tagged, pDOM5 supernatant) (protein, not shown: small tags and cut ends)
VH: GVQLLESGGGLVQPGGSLRLSCAASGFVFAWYDMGWVRQAPGKGLEWVSSIDWHGEVTYYADSVKGRFTISRDNSKNTLYLQMNSLRAEDTAVYYCATAEDEPGYDYWGQGTLVTVSS
B2: DOM10-53-567 (other)
VH: B1 VH
B3: DOM10-53-546 (other)
VH: B1 VH with A30P, H54K, E56G, V57K
B4: DOM10-53-568 (other)
VH: B1 VH with E56K, V57I
B5: DOM10-53-616 (other)
VH: B1 VH with A30P, E56K, V57I

Protein sequences, listed by entry. Tags and fused reporters are not part of them. Lines headed by an entry give the natural chain unless they say otherwise; changes in a name come on top. Chains listed by the source or under a name are the forms on record and can include a tag or linker. Residues count along the entry.
Cynomolgus monkey IL-13 (Q0PW92, form named): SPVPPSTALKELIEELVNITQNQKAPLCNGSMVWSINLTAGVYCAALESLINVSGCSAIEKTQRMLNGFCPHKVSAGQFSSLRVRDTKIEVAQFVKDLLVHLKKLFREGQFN
UniProt Q864V6, residues 19-132: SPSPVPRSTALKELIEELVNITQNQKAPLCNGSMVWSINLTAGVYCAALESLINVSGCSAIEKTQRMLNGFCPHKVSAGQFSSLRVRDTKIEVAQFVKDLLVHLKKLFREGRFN

Experiments:
Cynomolgus monkey IL-13 [1] = target: T1, Cynomolgus monkey IL-13 (cynomolgus monkey, UniProt Q0PW92 21-132); experiment: Biacore screen of supernatants, 200Ru cyno IL-13 streptavidin chip
rhesus IL-13 = rhesus IL-13 (rhesus, UniProt Q864V6 19-132, limits assumed); experiment: description's summary of the examples; rhesus IL-13 was tested only in the HEK STAT assay
Cynomolgus monkey IL-13 [2] = target: T1, Cynomolgus monkey IL-13; experiment: summary of Biacore, ELISA and HEK STAT data
Cynomolgus monkey IL-13 [3] = target: T1, Cynomolgus monkey IL-13; experiment: Biacore SPR

| Binder | binding (Cynomolgus monkey IL-13 [1]) | binding (rhesus IL-13) | binding (Cynomolgus monkey IL-13 [2]) | binding (Cynomolgus monkey IL-13 [3]) |
| --- | --- | --- | --- | --- |
| B1 | binds | – | – | – |
| B2 | – | binds | binds | binds |
| B3 | – | binds | binds | binds |
| B4 | – | binds | binds | binds |
| B5 | – | binds | binds | binds |

Reference: patent publication US20110236380A1 (published 2011)
